From paper doi:10.1101/513549 come the findings set out here.

The chains behind the UniProt entries cited, without tags or fusion partners.
UniProt Q13547: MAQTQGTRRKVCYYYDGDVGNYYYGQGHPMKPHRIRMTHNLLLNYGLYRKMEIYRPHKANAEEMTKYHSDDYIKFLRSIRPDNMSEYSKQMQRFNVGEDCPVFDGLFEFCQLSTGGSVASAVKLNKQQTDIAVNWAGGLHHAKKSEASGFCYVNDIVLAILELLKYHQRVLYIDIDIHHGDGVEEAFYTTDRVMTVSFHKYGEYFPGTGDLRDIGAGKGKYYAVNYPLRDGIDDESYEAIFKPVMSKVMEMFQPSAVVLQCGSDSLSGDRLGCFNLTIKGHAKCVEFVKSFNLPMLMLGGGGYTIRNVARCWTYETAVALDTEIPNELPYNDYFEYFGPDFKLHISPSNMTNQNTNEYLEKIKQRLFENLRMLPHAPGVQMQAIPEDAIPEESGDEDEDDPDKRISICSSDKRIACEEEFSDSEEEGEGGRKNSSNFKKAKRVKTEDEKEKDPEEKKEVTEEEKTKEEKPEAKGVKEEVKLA
UniProt Q99496: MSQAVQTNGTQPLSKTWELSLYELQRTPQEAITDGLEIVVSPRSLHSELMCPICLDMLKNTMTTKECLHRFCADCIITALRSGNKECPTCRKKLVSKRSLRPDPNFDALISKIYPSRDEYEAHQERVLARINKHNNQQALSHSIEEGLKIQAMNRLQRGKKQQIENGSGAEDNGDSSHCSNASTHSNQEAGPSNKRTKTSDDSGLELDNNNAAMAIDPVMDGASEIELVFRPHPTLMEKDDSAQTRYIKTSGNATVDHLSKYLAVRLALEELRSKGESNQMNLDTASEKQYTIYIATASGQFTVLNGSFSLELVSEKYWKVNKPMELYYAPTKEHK
UniProt Q06330: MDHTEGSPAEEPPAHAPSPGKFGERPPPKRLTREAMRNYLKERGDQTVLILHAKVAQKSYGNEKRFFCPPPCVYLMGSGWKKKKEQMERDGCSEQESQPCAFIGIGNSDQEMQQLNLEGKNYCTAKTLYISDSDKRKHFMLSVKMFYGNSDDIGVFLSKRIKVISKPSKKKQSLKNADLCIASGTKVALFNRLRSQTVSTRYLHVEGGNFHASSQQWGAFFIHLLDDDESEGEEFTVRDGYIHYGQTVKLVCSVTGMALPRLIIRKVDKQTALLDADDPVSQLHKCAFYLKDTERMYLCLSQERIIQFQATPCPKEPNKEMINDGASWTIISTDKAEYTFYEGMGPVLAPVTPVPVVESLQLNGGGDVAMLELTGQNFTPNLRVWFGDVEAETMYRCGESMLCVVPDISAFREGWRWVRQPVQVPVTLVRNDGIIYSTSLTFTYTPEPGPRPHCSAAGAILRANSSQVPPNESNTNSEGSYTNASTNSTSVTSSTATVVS
UniProt Q92585: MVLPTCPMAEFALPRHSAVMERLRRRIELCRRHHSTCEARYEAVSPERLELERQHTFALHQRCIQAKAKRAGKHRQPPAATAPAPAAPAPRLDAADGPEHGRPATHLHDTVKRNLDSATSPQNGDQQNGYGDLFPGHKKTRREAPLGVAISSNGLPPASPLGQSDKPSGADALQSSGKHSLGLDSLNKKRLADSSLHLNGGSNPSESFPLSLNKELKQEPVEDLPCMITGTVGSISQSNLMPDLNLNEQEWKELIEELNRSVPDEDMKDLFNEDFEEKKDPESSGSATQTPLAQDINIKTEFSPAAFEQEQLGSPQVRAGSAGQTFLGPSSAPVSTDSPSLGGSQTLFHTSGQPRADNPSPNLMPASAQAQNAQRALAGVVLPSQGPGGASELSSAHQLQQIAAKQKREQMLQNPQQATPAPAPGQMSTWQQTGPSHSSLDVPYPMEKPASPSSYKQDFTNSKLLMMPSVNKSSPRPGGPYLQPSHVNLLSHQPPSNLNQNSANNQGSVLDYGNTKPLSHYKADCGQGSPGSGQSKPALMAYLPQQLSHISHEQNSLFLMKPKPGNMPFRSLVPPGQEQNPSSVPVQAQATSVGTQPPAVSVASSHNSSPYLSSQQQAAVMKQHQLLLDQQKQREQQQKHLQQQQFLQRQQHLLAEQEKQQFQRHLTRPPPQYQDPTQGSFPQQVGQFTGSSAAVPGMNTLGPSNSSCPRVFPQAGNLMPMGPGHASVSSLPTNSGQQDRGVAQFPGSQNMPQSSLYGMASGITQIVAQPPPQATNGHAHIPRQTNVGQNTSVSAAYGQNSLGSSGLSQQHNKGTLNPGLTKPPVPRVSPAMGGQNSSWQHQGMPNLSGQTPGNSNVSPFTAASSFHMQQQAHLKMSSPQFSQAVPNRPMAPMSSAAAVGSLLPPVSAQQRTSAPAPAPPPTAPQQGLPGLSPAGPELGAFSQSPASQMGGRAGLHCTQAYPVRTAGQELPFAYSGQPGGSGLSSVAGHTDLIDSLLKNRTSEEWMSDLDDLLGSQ
UniProt Q14839: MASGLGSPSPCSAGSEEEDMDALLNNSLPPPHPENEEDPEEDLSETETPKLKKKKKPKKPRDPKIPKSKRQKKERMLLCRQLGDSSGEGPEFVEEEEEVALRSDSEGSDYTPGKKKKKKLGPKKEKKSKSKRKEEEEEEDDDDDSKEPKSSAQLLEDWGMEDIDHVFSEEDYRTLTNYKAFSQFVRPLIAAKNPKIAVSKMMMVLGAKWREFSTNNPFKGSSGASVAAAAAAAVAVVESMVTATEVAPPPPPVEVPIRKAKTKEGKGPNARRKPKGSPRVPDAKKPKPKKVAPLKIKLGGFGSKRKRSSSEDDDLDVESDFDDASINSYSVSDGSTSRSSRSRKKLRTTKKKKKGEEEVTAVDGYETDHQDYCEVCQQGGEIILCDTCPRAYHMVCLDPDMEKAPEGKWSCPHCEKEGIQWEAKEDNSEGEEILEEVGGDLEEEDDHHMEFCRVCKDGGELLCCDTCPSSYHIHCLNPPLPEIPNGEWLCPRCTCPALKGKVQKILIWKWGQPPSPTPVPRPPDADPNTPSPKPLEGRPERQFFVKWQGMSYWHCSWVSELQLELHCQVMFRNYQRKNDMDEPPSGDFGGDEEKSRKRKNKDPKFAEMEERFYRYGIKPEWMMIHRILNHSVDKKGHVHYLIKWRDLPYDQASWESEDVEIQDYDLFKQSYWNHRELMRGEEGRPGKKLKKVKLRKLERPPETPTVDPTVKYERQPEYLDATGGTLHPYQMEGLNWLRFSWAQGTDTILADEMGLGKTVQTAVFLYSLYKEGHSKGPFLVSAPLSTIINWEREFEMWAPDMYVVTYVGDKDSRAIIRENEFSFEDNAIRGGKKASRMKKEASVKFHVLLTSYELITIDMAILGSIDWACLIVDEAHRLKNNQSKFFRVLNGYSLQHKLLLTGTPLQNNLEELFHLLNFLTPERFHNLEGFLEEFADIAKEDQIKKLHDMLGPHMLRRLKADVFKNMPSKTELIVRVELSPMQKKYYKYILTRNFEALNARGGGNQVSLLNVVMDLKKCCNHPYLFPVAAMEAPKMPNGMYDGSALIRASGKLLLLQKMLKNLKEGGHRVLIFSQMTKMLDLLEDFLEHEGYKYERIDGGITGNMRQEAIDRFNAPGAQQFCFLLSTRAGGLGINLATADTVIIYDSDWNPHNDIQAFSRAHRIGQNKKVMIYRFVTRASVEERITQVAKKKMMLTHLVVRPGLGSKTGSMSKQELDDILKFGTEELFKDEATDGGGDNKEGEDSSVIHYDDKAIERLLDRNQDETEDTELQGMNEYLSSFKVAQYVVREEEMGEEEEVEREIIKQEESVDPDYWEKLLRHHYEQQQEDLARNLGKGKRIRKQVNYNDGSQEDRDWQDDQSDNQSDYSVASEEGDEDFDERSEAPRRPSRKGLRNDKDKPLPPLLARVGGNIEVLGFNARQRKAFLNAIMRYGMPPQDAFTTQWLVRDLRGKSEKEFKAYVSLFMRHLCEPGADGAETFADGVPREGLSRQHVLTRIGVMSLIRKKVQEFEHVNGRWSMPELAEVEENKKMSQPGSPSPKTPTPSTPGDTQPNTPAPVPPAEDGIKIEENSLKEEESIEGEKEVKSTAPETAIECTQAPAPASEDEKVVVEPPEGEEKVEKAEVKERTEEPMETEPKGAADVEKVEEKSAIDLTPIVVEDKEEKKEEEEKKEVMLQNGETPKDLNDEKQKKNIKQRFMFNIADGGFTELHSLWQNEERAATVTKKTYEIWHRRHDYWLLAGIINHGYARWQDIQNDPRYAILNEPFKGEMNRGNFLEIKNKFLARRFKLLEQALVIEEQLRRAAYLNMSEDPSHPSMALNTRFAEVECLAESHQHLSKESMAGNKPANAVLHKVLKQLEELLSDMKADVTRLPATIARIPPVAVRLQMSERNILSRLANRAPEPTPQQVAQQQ

Common to all, as to assay: co-IP
Assay [1] addresses FLAG-HDAC1 (human) (UniProt Q13547).
The target is the same in assay [2]. This is another data set of the same source.
The next assay concerns the target RNF2-FLAG (human) (UniProt Q99496).

Where two headings read alike, the source gives them in different places. No constants are given. Whether binding was seen depends on the method and setting. Binding seen in cells or lysates may run through a third protein. Some binding calls cover weakened binding; strength is not graded here.

On to “CSL (RBP-Jκ/CBF-1) (from UniProt Q06330 1-500)”, for which the binding entry with FLAG-HDAC1 (human) [1], with FLAG-HDAC1 (human) [2] and in the assay with RNF2-FLAG (human) was “binds” throughout.
Regarding MAML1 (from UniProt Q92585 1-1016), the binding entry with FLAG-HDAC1 (human) [1], with FLAG-HDAC1 (human) [2] and in the assay with RNF2-FLAG (human) was “binds” each time.
For MI2β/CHD4 (from UniProt Q14839 1-1912), the binding result in the assay with FLAG-HDAC1 (human) [2] was “binds”.
